Reference: article PMC12042775
No constants are given. Whether binding was seen depends on the method and setting. Binding seen in cells or lysates may run through a third protein. Some entries that bind do so weakly or less than the wild type.

Target: integrin β1 (human (endogenous in PC3)), P05556
Assay: co-IP; lysate of PC3-derived sEVs in lysis buffer with 0.5% Nonidet P40 substitute; anti-integrin β1 cross-linked (BS3) to Protein G Dynabeads, overnight; blotted with anti-integrin α6, α3 or CD151; sEVs before and after treatment with MβCD (cholesterol depletion)
Settings: remark: other sources report otherwise

B1: CD151, P48509 1-253 (protein)
chain: MGEFNEKKTTCGTVCLKYLLFTYNCCFWLAGLAVMAVGIWTLALKSDYISLLASGTYLATAYILVVAGTVVMVTGVLGCCATFKERRNLLRLYFILLLIIFLLEIIAGILAYAYYQQLNTELKENLKDTMTKRYHQPGHEAVTSAVDQLQQEFHCCGSNNSQDWRDSEWIRSQEAGGRVVPDSCCKTVVALCGQRDHASNIYKVEGGCITKLETFIQEHLRVIGAVGIGIACVQVFGMIFTCCLYRSLKLEHY
- binding: binds
